From publication PMC4316792, “The dehydrogenase region of the NADPH oxidase component Nox2 acts as a protein disulfide isomerase (PDI) resembling PDIA3 with a role in the binding of the activator protein p67^phox” (Frontiers in Chemistry, 2015) come the findings set out here.

By UniProt entry, the sequences of proteins in these tests, tags left out. Where a name states a change or a piece, a line headed by the entry shows the natural chain unless it says otherwise.
UniProt P04839: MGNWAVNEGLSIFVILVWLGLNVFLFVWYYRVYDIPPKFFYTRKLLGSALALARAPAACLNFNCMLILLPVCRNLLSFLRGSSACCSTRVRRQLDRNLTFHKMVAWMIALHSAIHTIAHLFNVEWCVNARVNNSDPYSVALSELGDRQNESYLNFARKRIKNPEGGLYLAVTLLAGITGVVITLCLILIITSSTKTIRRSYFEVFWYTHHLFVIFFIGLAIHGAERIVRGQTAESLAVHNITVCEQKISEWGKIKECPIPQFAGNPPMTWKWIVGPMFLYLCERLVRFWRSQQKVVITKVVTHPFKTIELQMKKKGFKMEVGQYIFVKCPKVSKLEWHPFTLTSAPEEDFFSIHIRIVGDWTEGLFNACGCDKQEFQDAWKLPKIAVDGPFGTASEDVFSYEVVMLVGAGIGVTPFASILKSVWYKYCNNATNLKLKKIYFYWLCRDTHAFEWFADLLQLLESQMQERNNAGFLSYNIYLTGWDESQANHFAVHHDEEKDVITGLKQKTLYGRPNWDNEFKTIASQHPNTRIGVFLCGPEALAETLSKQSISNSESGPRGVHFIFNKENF

No constants are given. Whether binding was seen depends on the method and setting. Binding can be weak; no strength is given.

The target in one test is T1, p67^phox(1–526) (UniProt P19878 1-526).
T1 construct: construct as in Mizrahi et al., 2010; also called full-length p67^phox; 6His-p67^phox; source: E. coli, purified (Nickel Sepharose); not shown: 6His, N-terminal, kept
T1 sequence (looked up): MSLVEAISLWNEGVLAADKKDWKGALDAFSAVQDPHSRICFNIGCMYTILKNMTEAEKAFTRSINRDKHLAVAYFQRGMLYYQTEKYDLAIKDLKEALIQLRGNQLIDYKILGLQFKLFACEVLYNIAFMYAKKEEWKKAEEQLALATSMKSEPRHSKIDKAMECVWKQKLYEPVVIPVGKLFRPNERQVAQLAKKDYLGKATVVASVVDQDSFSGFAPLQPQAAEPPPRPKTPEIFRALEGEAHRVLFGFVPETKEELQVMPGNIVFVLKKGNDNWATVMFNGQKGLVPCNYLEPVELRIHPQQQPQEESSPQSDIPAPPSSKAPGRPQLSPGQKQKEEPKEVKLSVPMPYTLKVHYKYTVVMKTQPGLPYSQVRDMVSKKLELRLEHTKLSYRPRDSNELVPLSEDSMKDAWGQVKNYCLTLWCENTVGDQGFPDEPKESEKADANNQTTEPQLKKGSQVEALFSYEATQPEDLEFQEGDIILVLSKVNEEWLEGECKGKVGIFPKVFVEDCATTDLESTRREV
Kind of test: ELISA; protein—protein binding assay: p67^phox (0.5 μM in PBS) attached to 96-well plates 16–18 h at 4°C; NusA-Nox2 or NusA 0.5 μM in PBS with 0.1% Tween 20 and 1% casein, 1 h at room temperature; detected by anti-NusA antibody and peroxidase-conjugated anti-mouse IgG, mAbs at 650 nm per min; both ….

For a further test, the target named is T2, p67^phox(1–212) (UniProt P19878 1-212).
T2 construct: contains four cysteines (40, 45, 121, 165); source: E. coli, purified (Nickel Sepharose); not shown: 6His, N-terminal, kept
T2 sequence (looked up): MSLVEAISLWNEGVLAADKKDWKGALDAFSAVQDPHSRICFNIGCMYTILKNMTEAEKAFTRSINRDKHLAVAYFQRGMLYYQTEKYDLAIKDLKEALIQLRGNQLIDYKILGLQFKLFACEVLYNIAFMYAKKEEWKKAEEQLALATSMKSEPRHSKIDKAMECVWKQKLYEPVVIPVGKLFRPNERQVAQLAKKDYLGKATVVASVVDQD
Described as above.

For the substance “NusA-Nox2(328–570) (from UniProt P04839) (domain or fragment)”, the binding entry in the test with p67^phox(1–526) and with p67^phox(1–212) was “binds” each time.

In the case of “NusA-Nox2(357–570) (from UniProt P04839) (domain or fragment)”, the binding entry with p67^phox(1–526) and with p67^phox(1–212) was “binds” each time.

As for “NusA-Nox2(372–570) (from UniProt P04839) (domain or fragment)”, the binding entry in the test with p67^phox(1–526) and in the test with p67^phox(1–212) was “no binding (tested: 0.5 μM)” in each case.

In the case of “NusA-Nox2(387–570) (from UniProt P04839) (domain or fragment)”, the binding entry with p67^phox(1–526) and with p67^phox(1–212) was “no binding (tested: 0.5 μM)” throughout.

On to “NusA-Nox2(408–570) (from UniProt P04839) (domain or fragment)”, for which the binding entry in the test with p67^phox(1–526) and in the test with p67^phox(1–212) was “no binding (tested: 0.5 μM)” throughout.

For “NusA-Nox2(444–570) (from UniProt P04839) (domain or fragment)”, the binding entry with p67^phox(1–526) and with p67^phox(1–212) was “no binding (tested: 0.5 μM)” each time.

On to “NusA-Nox2(462–570) (from UniProt P04839) (domain or fragment)”, for which the binding result with p67^phox(1–526) and with p67^phox(1–212) was “no binding (tested: 0.5 μM)” each time.
